In patent publication US20190077809A1, “Spirocyclic Derivatives” (BASF SE, priority 2016, published 2019):
Some entries share one result that the patent states for a list of compounds.

Assays:
Type in all cases: in vivo
[1] = system: Plutella xylostella; assay: Diamond back moth (Plutella xylostella) cabbage leaf-dip test; details: 300 ppm; 3rd instar larvae on dipped cabbage leaves; 72 hours after treatment
Method: The active compound was dissolved at the desired concentration in a mixture of 1:1 (vol:vol) distilled water:aceteone. Surfactant (Kinetic HV) was added at a rate of 0.01% (vol/vol).The test solution was prepared at the day of use.
Leaves of cabbage were dipped in test solution and air-dried. Treated leaves were placed in petri dishes lined with moist filter paper and inoculated with ten 3rd instar larvae. Mortality was recorded 72 hours after treatment. Feeding damages were also recorded using a scale of 0-100%.

[2] = system: Myzus persicae; assay: Green peach aphid (Myzus persicae) systemic test, artificial diet in microtiter plates; details: 2500 ppm; adult aphids on treated artificial diet; 3 days
Source text: For evaluating control of green peach aphid (Myzus persicae) through systemic means the test unit consisted of 96-well-microtiter plates containing liquid artificial diet under an artificial membrane.
The compounds were formulated using a solution containing 75% v/v water and 25% v/v DMSO. Different concentrations of formulated compounds were pipetted into the aphid diet, using a custom built pipetter, at two replications.
After application, 5-8 adult aphids were placed on the artificial membrane inside the microtiter plate wells. The aphids were then allowed to suck on the treated aphid diet and incubated at about 23±1 ° C. and about 50±5% relative humidity for 3 days. Aphid mortality and fecundity was then visually assessed.

[3] = system: Megoura viciae; assay: Vetch aphid (Megoura viciae) broad bean leaf disk test; details: 2500 ppm; adult aphids on sprayed broad bean leaf disks; 5 days
Method: For evaluating control of vetch aphid (Megoura viciae) through contact or systemic means the test unit consisted of 24-well-microtiter plates containing broad bean leaf disks.
The compounds were formulated using a solution containing 75% v/v water and 25% v/v DMSO. Different concentrations of formulated compounds were sprayed onto the leaf disks at 2.5 μl, using a custom built micro atomizer, at two replications.
After application, the leaf disks were air-dried and 5- 8 adult aphids placed on the leaf disks inside the microtiter plate wells. The aphids were then allowed to suck on the treated leaf disks and incubated at about 23±1° C. and about 50±5% relative humidity for 5 days. Aphid mortality and fecundity was then visually assessed.

[4] = system: Heliothis virescens; assay: Tobacco budworm (Heliothis virescens) insect diet/egg microtiter test; details: 2500 ppm; egg and larval mortality on sprayed insect diet; 5 days
Method: For evaluating control of tobacco budworm (Heliothis virescens) the test unit consisted of 96-well-microtiter plates containing an insect diet and 15-25 H. virescens eggs.
The compounds were formulated using a solution containing 75% v/v water and 25% v/v DMSO. Different concentrations of formulated compounds were sprayed onto the insect diet at 10 μl, using a custom built micro atomizer, at two replications.
After application, microtiter plates were incubated at about 28+1° C. and about 80+5% relative humidity for 5 days. Egg and larval mortality was then visually assessed.

[5] = system: Anthonomus grandis; assay: Boll weevil (Anthonomus grandis) insect diet/egg microtiter test; details: 2500 ppm; egg and larval mortality on sprayed insect diet; 5 days
Method: For evaluating control of boll weevil (Anthonomus grandis) the test unit consisted of 96-well-microtiter plates containing an insect diet and 5-10 A. grandis eggs.
(§1) The compounds were formulated using a solution containing 75% v/v water and 25% v/v DMSO. Different concentrations of formulated compounds were sprayed onto the insect diet at 5 μl, using a custom built micro atomizer, at two replications.
After application, microtiter plates were incubated at about 25±1° C. and about 75±5% relative humidity for 5 days. Egg and larval mortality was then visually assessed.

[6] = system: Dichromothrips corbetti; assay: Orchid thrips (dichromothrips corbetti) floral-immersion test; details: 300 ppm; adult thrips on dipped orchid petals; 72 hours after treatment
Method: Dichromothrips corbetti adults used for bioassay were obtained from a colony maintained continuously under laboratory conditions. For testing purposes, the test compound is diluted in a 1:1 mixture of acetone:water (vol:vol), plus Kinetic HV ata rate of 0.01% v/v.
Thrips potency of each compound was evaluated by using a floral-immersion technique. All petals of individual, intact orchid flowers were dipped into treatment solution and allowed to dry in Petri dishes. Treated petals were placed into individual re-sealable plastic along with about 20 adult thrips. All test arenas were held under continuous light and a temperature of about 28° C. for duration of the assay. After 3 days, the numbers of live thrips were counted on each petal. The percent mortality was recorded 72 hours after treatment.

[7] = system: Nephotettix virescens; assay: Rice green leafhopper (Nephotettix virescens) sprayed rice seedling test; details: 300 ppm; adults on sprayed rice seedlings; after 72 hours
Method: Rice seedlings were cleaned and washed 24 hours before spraying. The active compounds were formulated in 1:1 acetone:water (vol:vol), and 0.01% vol/vol surfactant (Kinetic HV) was added. Potted rice seedlings were sprayed with 5-6 ml test solution, air dried, covered with Mylar cages cages and inoculated with 10 adults. Treated rice plants were kept at about 28-29° C. and relative humidity of about 50-60%. Percent mortality was recorded after 72 hours.

[8] = system: Tetranychus kanzawai; assay: Red spider mite (Tetranychus kanzawai) sprayed cowpea bean test; details: 300 ppm; mites on sprayed cowpea beans; 72 hours after treatment
Method: The active compound was dissolved at the desired concentration in a mixture of 1:1 (vol:vol) distilled water:acetone. Add surfactant (Kinetic HV) was added at a rate of 0.01% (vol/vol).The test solution was prepared at the day of use.
Potted cowpea beans of 4-5 days of age were cleaned with tap water and sprayed with 1-2 ml of the test solution using air driven hand atomizer. The treated plants were allowed to air dry and afterwards inoculated with 30 or more mites by clipping a cassava leaf section from rearing population. Treated plants were placed inside a holding room at about 25-27° C. and about 50-60% relative humidity. Percent mortality was assessed 72 hours after treatment.

[9] = system: Spodoptera eridania; assay: Southern armyworm (Spodoptera eridania) sprayed lima bean foliage test; details: 10 ppm; larvae on sprayed lima bean plants; 4 days after treatment
Method: The active compounds were formulated in cyclohexanone as a 10,000 ppm solution supplied in tubes. The tubes were inserted into an automated electrostatic sprayer equipped with an atomizing nozzle and they served as stock solutions for which lower dilutions were made in 50% acetone:50% water (v/v). A nonionic surfactant (Kinetic®) was included in the solution at a volume of 0.01% (v/v).
Lima bean plants (variety Sieva) were grown 2 plants to a pot and selected for treatment at the 1st true leaf stage. Test solutions were sprayed onto the foliage by an automated electrostatic plant sprayer equipped with an atomizing spray nozzle. The plants were dried in the sprayer fume hood and then removed from the sprayer. Each pot was placed into perforated plastic bags with a zip closure. About 10 to 11 armyworm larvae were placed into the bag and the bags zipped closed. Test plants were maintained in a growth room at about 25° C. and about 20-40% relative humidity for 4 days, avoiding direct exposure to fluorescent light (24 hour photoperiod) to prevent trapping of heat inside the bags. Mortality and reduced feeding were assessed 4 days after treatment, compared to untreated control plants.

[10] = system: Nezara viridula; assay: Green soldier stink bug (Nezara viridula) sprayed soybean pod test; details: 300 ppm; late 3rd instar on sprayed soybean pods; after 5 days
Method: The active compound was dissolved at the desired concentration in a mixture of 1:1 (vol:vol) distilled water:acetone. Surfactant (Kinetic HV) was added at a rate of 0.01% (vol/vol). The test solution was prepared at the day of use.Soybean pods were placed in glass Petri dishes lined with moist filter paper and inoculated with ten late 3rd instar N. vindula. Using a hand atomizer, approximately 2 ml solution is sprayed into each Petri dish. Assay arenas were kept at about 25° C. Percent mortality was recorded after 5 days.

[11] = system: Euschistus heros; assay: Neotropical brown stink bug (Euschistus heros) sprayed soybean pod test; details: 100 ppm; adult stage, sprayed cups with soybean pods; after 5 days
[12] = system: Halyomorpha halys; assay: Brown marmorated stink bug (Halyomorpha halys) sprayed peanut/soybean seed test; details: 100 ppm; adult stage, sprayed cups with peanuts and soybean seeds; after 5 days
Method: The active compound was dissolved at the desired concentration in a mixture of 1:1 (vol:vol) distilled water:acetone. Surfactant (Kinetic HV) was added at a rate of 0.01% (vol/vol). The test solution was prepared at the day of use.
Row peanuts and soybean seeds were placed into microwavable plastic cups and inoculated with five adult stage H. halys. Using a hand atomizer, approximately 1 ml solution is sprayed into each cup, insects and food present. A water source was provided (cotton wick with water). Each treatment is replicated 4-fold. Assay arenas are kept at about 25° C. Percent mortality was recorded after 5 days.

[13] = system: Ceratitis capitata; assay: Mediterranean fruitfly (Ceratitis capitata) insect diet/egg microtiter test; details: 2500 ppm; egg and larval mortality on sprayed insect diet; 5 days
Method: For evaluating control of Mediterranean fruitfly (Ceratitis capitata) the test unit consisted of microtiter plates containing an insect diet and 50-80 C. capitata eggs.
as §1
After application, microtiter plates were incubated at about 28±1° C. and about 80±5% relative humidity for 5 days. Egg and larval mortality was then visually assessed.

| SMILES | mortality in comparison with untreated controls [1] | mortality in comparison with untreated controls [2] | mortality in comparison with untreated controls [3] | mortality in comparison with untreated controls [4] | mortality in comparison with untreated controls [5] | mortality in comparison with untreated controls [6] | mortality in comparison with untreated controls [7] | mortality in comparison with untreated controls [8] | mortality in comparison with untreated controls [9] | mortality in comparison with untreated controls [10] | mortality in comparison with untreated controls [11] | mortality in comparison with untreated controls [12] | mortality in comparison with untreated controls [13] |
| --- | --- | --- | --- | --- | --- | --- | --- | --- | --- | --- | --- | --- | --- |
| CC(=O)N1CC2(C1)OCc1cc(C3=CSC(c4cc(Cl)c(F)c(Cl)c4)(C(F)(F)F)C3)ccc12 (stereo not drawn) [Compound I-2-3] | at least 75% | at least 75% | at least 75% | at least 75% | at least 75% | at least 75% | at least 75% | at least 75% | at least 75% | at least 75% | at least 70% | at least 75% | – |
| CCCC(=O)N1CC2(C1)OCc1cc(C3=CSC(c4cc(Cl)c(F)c(Cl)c4)(C(F)(F)F)C3)ccc12 (stereo not drawn) [Compound I-2-4] | at least 75% | at least 75% | at least 75% | at least 75% | at least 75% | at least 75% | at least 75% | at least 75% | at least 75% | at least 75% | at least 70% | – | at least 75% |
